# Laboratory results published in PubChem BioAssay AID2685 (National Center for Advancing Translational Sciences (NCATS), 2010).
# Among all 320,000 compounds or so, about 2,100 (0.66%) were called active. Inconclusive means that the source gave no clear call. Such entries were picked first, then a sample of the others. The call rests on the fitted dose curve; in most records, active means well fitted inhibition curve with a large enough effect in the signal ratio, with a control signal flat (not every such curve was filed as active); inconclusive means small, poorly fitted or top-dose-only effect, or effect the other way, or a change in a side signal; inactive means flat fitted curve, though single readings scatter; the % refers to the signal ratio. Potencies beside an inconclusive call are fits to weak or partial responses and may not hold up. Where a SMILES comes first, the peptide text is derived from it. The star is where a group is joined. Boc = CC(C)(C)OC(=O)*; Bn = c1ccc(C*)cc1
# Assay: qHTS Assay for Lipid Storage Modulators in Drosophila S3 Cells
# Conditions: BODIPY lipid droplet fluorescence, 18-24 h, cells fed with added oleic acid; lipid storage change, negative = inhibition: at 46.1 µM (top of the series) unless noted
# Procedure, shortened: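 Drosophila S3 cells got compounds at several concentrations plus oleic acid (400 uM solution). Laser-scanning cytometry with 488 nm excitation read lipid droplets at 500-530 nm and cells at 575-640 nm. Percent activity was relative to 20 uM Triacsin C.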
# On the % scale 0 is the no-effect control and ±100 the full control effect; potency means the concentration at half of the fitted maximal effect.
Structure (SMILES),"lipid storage change, negative = inhibition",Potency
COc1ccc([N+](=O)[O-])cc1N(CC(=O)Nc1ccccc1C(=O)N1CCOCC1)S(C)(=O)=O,inconclusive: -1.95%,–
CN1CCN(S(=O)(=O)c2cccc(S(=O)(=O)c3ccc(Cl)cc3)c2)CC1,inconclusive: 9.14%,–
Cc1ccc(NC(=O)CSc2nnc(CCC(=O)O)c(=O)[nH]2)cc1,inconclusive: -44.7%,–
O=Cc1cc(CCC(=O)O)ccc1O,inconclusive: 114%,–
O=C(NCCN1CCOCC1)N1CCOCC1,–,"inconclusive: 23.1 µM [falling, partial curve, poor fit]"
CC(C)c1nnc2c(N(C)S(=O)(=O)c3ccccc3)nc3ccccc3n12,–,"inconclusive: 0.0046 µM [falling, full curve, poor fit]"
CCOc1ccc(S(=O)(=O)N2CCC(C(=O)NCc3ccco3)CC2)cc1,inconclusive: 15.1%,–
Cc1cc(/C=C2\NC(=O)N(Cc3ccc(Cl)cc3)C2=O)c(C)n1C,inconclusive: 32%,–
CCc1ccccc1NC(=O)CN(c1ccc(OC)cc1OC)S(=O)(=O)c1ccccc1,–,active: 2.91 µM
NNCCc1ccccc1,inconclusive: 5.94%,–
COc1cc(C(=O)NCC2(c3ccccc3)CCCC2)cc(OC)c1OC,inconclusive: -7.04%,–
O=C(C1CCCC1)N1CCCC(Nc2ccccc2)C1 (centres undefined),–,"inconclusive: 2.91 µM [activator, partial curve]"
CCOC(=O)c1ccccc1NC(=O)Cc1sc(-c2cccnc2)nc1-c1ccc(C)cc1,–,"inconclusive: 0.651 µM [activator, full curve, poor fit]"
O=C(CCC1N=C2c3ccccc3N=C(SCc3cccc(Cl)c3)N2C1=O)NCc1ccco1 (centres undefined),inconclusive: -24%,–
CCOc1ccccc1NC(=O)/C(C#N)=C/c1cccnc1,–,"inconclusive: 0.146 µM [activator, full curve, poor fit]"
CC1CC(=O)N(c2ccc(N(C)Cc3ccccc3)c([N+](=O)[O-])c2)C1=O (centres undefined),–,"inconclusive: 29.1 µM [cytotoxic, single point]"
COc1ccc(CC(=O)N2CCN(S(=O)(=O)c3cc(Cl)ccc3Cl)CC2)cc1,inconclusive: 0.334%,–
Cc1ccc(-c2nc3ncccc3o2)cc1NC(=S)NC(=O)c1ccco1,inconclusive: 44%,–
Cn1c(N)c(S(=O)(=O)NCc2ccc(Cl)cc2)c(=O)n(C)c1=O,–,"inconclusive: 7.31 µM [cytotoxic, partial curve, poor fit]"
CCNC(=O)n1cc(-n2cncn2)c(-c2ccccc2)n1,–,"inconclusive: 6.51 µM [cytotoxic, single point]"
Cc1cccc(C)c1NC(=O)CN(C)CC(=O)Nc1ccccc1Oc1ccccc1,inconclusive: 5.72%,–
COc1ccccc1CNC(=O)CSc1ncc(C(=O)Nc2ccccc2)c(=O)n1C,inconclusive,–
COc1cccc(OC)c1C(=O)Nc1c(C(=O)N2CCN(c3ccccn3)CC2)oc2ccccc12,inconclusive: 8.95%,–
Cc1ccc(C(C)C)c(OCC(=O)NNC2=CC(=O)CC(C)(C)C2)c1,inconclusive: -1.36%,–
CCC(=O)c1ccc(OCC(O)CN(CCc2ccccc2)Cc2ccccc2)cc1 (centres undefined),–,"inconclusive: 29.1 µM [falling, single point]"

Structure (SMILES),"lipid storage change, negative = inhibition",Potency
Cc1ccc(NC(=O)CCNS(=O)(=O)c2cccs2)cc1F,inconclusive: -16.2%,–
O=C(NCCCN1CCOCC1)c1ccc(S(=O)(=O)Nc2ccccc2F)cc1,inconclusive: 37.3%,–
COc1ccc(C(CNC(=O)c2ccc3c(c2)C(=O)N(CCC(C)C)C3=O)N2CCOCC2)cc1 (centres undefined),–,"inconclusive: 7.31 µM [activator, partial curve]"
CC1(C)Cc2ccccc2C(C(Cc2ccccc2)C(N)=O)=N1 (centres undefined),inconclusive: -19.2%,–
CN(c1ccccc1C(=O)NC1CC2CCC1C2)S(=O)(=O)c1ccccc1 (centres undefined),–,"inconclusive: 6.51 µM [falling, single point]"
COc1ccc(/C(O)=C2/C(=O)C(=O)N(c3nc(C)c(C)s3)C2c2ccco2)cc1 (centres undefined),–,"inconclusive: 10.3 µM [falling, partial curve]"
Cc1ccc(-c2noc(C3CCCN(C(=O)c4cccc(Cl)c4)C3)n2)o1 (centres undefined),inconclusive: 7.02%,–
O=C(Cc1cccc(C(F)(F)F)c1)Nc1ccccc1N1CCCC1,inconclusive: -19.4%,–
O=C1CC(N2CCSCC2)C(=O)N1c1ccc(Br)cc1 (centres undefined),inconclusive: -21.1%,–
CN1CCN(C(=O)/C=C/c2ccc([N+](=O)[O-])o2)CC1,–,active: 32.6 µM
Nc1nc(-c2ccco2)nn1C(=O)c1ccc(Cl)cc1,inconclusive: 8.55%,–
Cc1ccsc1C(=O)OCC(=O)NCCCc1ccccc1,inconclusive: 3.97%,–
C/C(=N\NC(=O)c1cc(C)nc2ccc(C)cc12)c1ccncc1,–,"inconclusive: 29.1 µM [activator, single point]"
CCN(Cc1nc2ccccc2c(=O)[nH]1)C(=O)c1cccc(NC(=O)c2cccs2)c1,inconclusive: 17.9%,–
CCN(CC(=O)Nc1c(F)cccc1F)C(=O)C1CC1,–,"inconclusive: 25.9 µM [activator, partial curve, poor fit]"
CCOC(=O)C1=C(N)n2c(s/c(=C\c3ccncc3)c2=O)=C(C(=O)OCC)C1c1ccncc1 (centres undefined),inconclusive: 8.52%,–
CCNC(=O)CC1C(=O)N(c2cccc(OC)c2)C(=O)N1CCOC (centres undefined),inconclusive: -18.1%,–
Cc1ccnc(NC(=O)CSc2ccc3c(c2)OCCO3)c1,inconclusive: 28.2%,–
O=[N+]([O-])c1cccc(-n2cc3ccc([N+](=O)[O-])cc3n2)c1,inconclusive: -10.3%,–
CC(Nc1nc(-c2ccccc2)nc2ccccc12)c1ccccc1 (centres undefined),inconclusive: 29.2%,–
O=C(CSc1ncccn1)NC(=O)NCc1ccccc1,inconclusive: 4.46%,–
CN(C(=O)COC(=O)c1cncc(Br)c1)C1CCS(=O)(=O)C1 (centres undefined),–,"inconclusive: 0.231 µM [falling, full curve, poor fit]"
CC(C)CC(NC(=O)C(CC(C)C)NC(=O)C(Cc1ccc(OCc2ccccc2)cc1)NC(=O)OC(C)(C)C)C(N)=O (stereo not drawn) (Boc-Tyr(Bn)-Leu-Leu-NH2; configuration not given here),–,"inconclusive: 6.51 µM [falling, single point]"
COc1ccccc1NC(=O)C(=O)NCC(c1ccco1)N1CCc2ccccc21 (centres undefined),inconclusive: 8.61%,–
O=C(NNC(=O)c1cccs1)c1cccnc1,inconclusive: -14%,–

# Shown tab-delimited: entries from further up.
Structure (SMILES)	lipid storage change, negative = inhibition	Potency
COc1ccc(C(CNC(=O)c2ccc3c(c2)C(=O)N(CCC(C)C)C3=O)N2CCOCC2)cc1 (centres undefined)	–	inconclusive: 7.31 µM [activator, partial curve]
CC1(C)Cc2ccccc2C(C(Cc2ccccc2)C(N)=O)=N1 (centres undefined)	inconclusive: -19.2%	–
CN(c1ccccc1C(=O)NC1CC2CCC1C2)S(=O)(=O)c1ccccc1 (centres undefined)	–	inconclusive: 6.51 µM [falling, single point]
COc1ccc(/C(O)=C2/C(=O)C(=O)N(c3nc(C)c(C)s3)C2c2ccco2)cc1 (centres undefined)	–	inconclusive: 10.3 µM [falling, partial curve]

# Continued.

Structure (SMILES),"lipid storage change, negative = inhibition",Potency
CCCC(=O)NCc1nc2ccccc2n1CC(=O)c1ccccc1,inconclusive: 19.8%,–
CCCn1c(SCC(=O)NC2CCCCC2)nnc1C1CC1,inconclusive: -16.9%,–
CCCC(NC(=O)C(C)Sc1nnnn1C1CC1)c1ccccc1 (centres undefined),–,"inconclusive: 1.64 µM [falling, partial curve]"
CC(=O)Nc1cccc(C(=O)/C=C/c2ccc(Br)cc2)c1,inconclusive: 61.5%,–
CN1CCN(Cc2c(O)ccc3occ(C(=O)c4ccccc4)c23)CC1,inconclusive: 17.5%,–
CSc1nc(-c2ccccc2)cc(C)c1C#N,–,"inconclusive: 20.6 µM [activator, single point]"
COc1ccc(CC(=O)Nc2cc3oc4ccccc4c3cc2OC)cc1,–,"inconclusive: 0.146 µM [activator, full curve, poor fit]"
COc1ccccc1Nc1nc(N)nc(CSc2ncccn2)n1,–,"inconclusive: 3.66 µM [activator, partial curve]"
CC1=C(c2ccccc2)[N+](=O)C2(CCCC2)N1[O-],–,"inconclusive: 0.164 µM [falling, full curve, poor fit]"
COc1ccc(C2CC(c3ccccc3)=NN2C(=O)COC(=O)CNC(=O)c2ccccc2)cc1 (centres undefined),–,active: 14.6 µM
Cc1cccc(N=C2NN=C(c3c(C)[nH]c4ccccc34)CS2)c1,inconclusive: -24.1%,–
Cn1c(N)c(S(=O)(=O)N2CCN(c3ccccc3F)CC2)c(=O)n(C)c1=O,inconclusive: 5.54%,–
Cc1ccc(S(=O)(=O)N2CCN(c3cccc(C)c3)CC2)cc1,–,"inconclusive: 29.1 µM [falling, partial curve, poor fit]"
COc1cc(C(=O)OC(C)C(=O)Nc2ccc3c(c2)OCO3)ccc1OCc1c(C)noc1C (centres undefined),inconclusive: -14.6%,–
COc1ccc(CNC(=O)c2cc(-c3cc(C)ccc3O)n[nH]2)cc1,inconclusive: 17.9%,–
COc1ccccc1CNC(=O)c1ccc(CS(=O)(=O)c2ccccc2OC)o1,inconclusive: -25.9%,–
COc1ccccc1NC(=O)C(=N\O)/C(C)=N/O,inconclusive: 1.06%,–
CSc1nc(-c2ccco2)nn1C(=O)c1ccc(Cl)cc1,inconclusive: 84.8%,–
CC[C@@H](C)C(N)c1cn([C@@H](CCC(=O)O)C(=O)N2CCNCC2)nn1 (some centres undefined),inconclusive: 5.24%,–
Cc1cc(NS(=O)(=O)c2ccc(NC(=O)COc3ccc(Cl)c(C)c3)cc2)no1,–,"inconclusive: 3.26 µM [activator, full curve]"
COc1ccc(NS(=O)(=O)c2cc(NC(=O)c3ccc(C)o3)ccc2N2CCCCC2)cc1,–,"inconclusive: 29.1 µM [cytotoxic, single point]"
O=C(Nc1ccccc1)Nc1ccc(NC(=O)c2ccccc2O)cc1,inconclusive: -3.79%,–
CC(C)CN1C(=O)C(=O)N(CC(=O)Nc2cccc(Cl)c2Cl)C1=O,–,"inconclusive: 2.91 µM [activator, partial curve, poor fit]"
CC1Sc2ccc(C(=O)Nc3ncccc3O)cc2NC1=O (centres undefined),inconclusive,–
